# Measurements reported in PubChem BioAssay AID504467 (National Center for Advancing Translational Sciences (NCATS), 2011).
# Out of some 330,000 compounds screened, about 7,700 (2.3%) were called active. This list was built around the results that the source calls inconclusive (neither active nor inactive); the mix of calls is not that of the screen. Calls come from the whole dose curve; as a rule, active = well fitted inhibition curve with a large enough effect; inconclusive = small, poorly fitted or top-dose-only effect, or effect the other way; inactive = flat fitted curve, though single readings scatter. Where the call is inconclusive, the potency comes from a doubtful curve fit.
# Assay: qHTS screen for small molecules that inhibit ELG1-dependent DNA repair in human embryonic kidney (HEK293T) cells expressing luciferase-tagged ELG1; note: nearly all actives have a fitted effect of over 55% in size
# Conditions: HEK293T ELG1-luciferase reporter, luminescence, 16 h, DNA damage induced by 5-fluorouridine; series mostly up to 46.1 µM
# Method in brief: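 HEK293T cells expressing luciferase-tagged ELG1 (2,000/well) received 5-Fluorouridine plus compound or DMSO for 16 hr at 37 °C. Luciferase was read by ONE-Glo luminescence after 30 min at room temperature.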
# Potency is the fitted concentration of half-maximal effect.
row,SMILES,Potency
1,CSc1nsc(SCC(=O)N2CCCCC2)n1,"inconclusive: 14.6 µM [activator, partial curve]"
2,Cc1cccc(NC(=O)CCc2c(C)nn(-c3ccc(N4CCCCC4)nn3)c2C)c1,"inconclusive: 3.26 µM [activator, single point]"
3,COc1cc(C(=O)N(Cc2ccco2)Cc2cc3ccccc3[nH]c2=O)cc(OC)c1OC,"inconclusive: 20.6 µM [inhibitor, partial curve]"
4,S=C1NCCc2ccccc2C1c1ccccc1 (centres undefined),"inconclusive: 20.6 µM [inhibitor, single point]"
5,O=C(NCc1ccncc1)C1CCCN(S(=O)(=O)c2cc(Cl)ccc2Cl)C1 (centres undefined),"inconclusive: 0.651 µM [inhibitor, single point]"
6,COc1ccc(-c2cc(C#N)nc(NN)n2)cc1,"inconclusive: 1.83 µM [inhibitor, partial curve, poor fit]"
7,CCNS(=O)(=O)c1ccc(CCC(=O)N2CCc3ccccc3C2)cc1,inactive
8,Cc1cccc2cc3c(NC(=O)c4ccccn4)nn(C)c3nc12,inactive
9,COc1ccc(C(=O)/C=C/Nc2cc(C)on2)cc1,"inconclusive: 5.8 µM [activator, partial curve]"
10,CN(C)S(=O)(=O)c1cc(NC(=O)c2ccc(-n3ccnc3)c([N+](=O)[O-])c2)ccc1Cl,"inconclusive: 23.1 µM [inhibitor, single point]"
11,O=C(N/N=C/c1cccnc1)c1cc2ccccc2cc1O,"inconclusive: 23.1 µM [activator, partial curve, poor fit]"
12,N#Cc1c(N)n(CCCN2CCOCC2)c2nc3ccccc3nc12,"inconclusive: 18.4 µM [inhibitor, single point]"
13,CCC(=O)N(c1nnc(SCC(=O)c2ccc[nH]2)s1)C1CC1,"inconclusive: 13 µM [activator, partial curve]"
14,O=S(=O)(Nc1cc(Sc2cccc3cccnc23)c(O)c2ccccc12)c1ccccc1,active: 9.2 µM
15,COc1ccc(-c2c[n+](CC(=O)OC3CC(C)CCC3C(C)C)c3n2CCC3)cc1 (centres undefined),"inconclusive: 7.3 µM [inhibitor, partial curve]"
16,CC(=O)NCCc1nc2ccccc2n1CCCCOc1ccccc1,inactive
17,CCCOc1ccc(CCC(=O)O)cc1,"inconclusive: 29.1 µM [inhibitor, single point]"
18,CCn1c(SCC(=O)N/N=C/C(C)=C/c2ccco2)nnc1-c1ccccc1,inactive
19,Cc1cc(C)c(S(=O)(=O)Nc2ccccc2-c2ccccc2)c(C)c1,inactive
20,Cc1ccc(NC(=O)COC(=O)Cn2ccc(=O)[nH]c2=O)cc1C,"inconclusive: 29.1 µM [activator, partial curve, poor fit]"
21,CC(C)(CNc1ccc(C(F)(F)F)cc1[N+](=O)[O-])N1CCOCC1,inactive
22,Cc1ccsc1CN(C)C(=O)C1CCC(=O)N(CCc2cccc(F)c2)C1 (centres undefined),"inconclusive: 20.6 µM [activator, partial curve]"

# As a working copy, part of the list above.
row,SMILES,Potency
5,O=C(NCc1ccncc1)C1CCCN(S(=O)(=O)c2cc(Cl)ccc2Cl)C1 (centres undefined),"inconclusive: 0.651 µM [inhibitor, single point]"
6,COc1ccc(-c2cc(C#N)nc(NN)n2)cc1,"inconclusive: 1.83 µM [inhibitor, partial curve, poor fit]"
7,CCNS(=O)(=O)c1ccc(CCC(=O)N2CCc3ccccc3C2)cc1,inactive
8,Cc1cccc2cc3c(NC(=O)c4ccccn4)nn(C)c3nc12,inactive

# (next part)

row,SMILES,Potency
1,CC(SCc1ccccc1)C(=O)Nc1ccc2c(c1)OCO2 (centres undefined),"inconclusive: 18.4 µM [activator, partial curve]"
2,Cc1cc(=O)oc2n[nH]c(-c3ccccc3)c12,"inconclusive: 20.6 µM [activator, single point]"
3,O=[N+]([O-])c1ccccc1/C=N/n1c(C2CCCCC2)n[nH]c1=S,"inconclusive: 20.6 µM [activator, partial curve, poor fit]"
4,COc1ccc(NS(=O)(=O)c2cc(NC(=O)c3ccc(=O)[nH]c3)ccc2C)cc1,"inconclusive: 23.1 µM [activator, single point]"
5,COCCCNC(=O)CNC(=S)N(Cc1ccc(F)cc1)C1CCCCC1,inactive
6,Cc1occc1C(=O)NCCc1ccc(Cl)cc1,"inconclusive: 18.4 µM [activator, single point]"
7,COc1ccc(S(=O)(=O)N(CC(=O)NCc2ccncc2)c2ccc(C)cc2)cc1Br,"inconclusive: 23.1 µM [activator, single point]"
8,CN(C)/C=C/C(=O)c1ccc2noc(-c3ccccc3)c2c1,active: 23.1 µM
9,Nc1nc(-c2ccc3c(c2)NC(=O)CO3)cs1,"inconclusive: 23.1 µM [activator, single point]"
10,COC(=O)c1c(-c2ccccc2)csc1NC(=O)c1ccco1,"inconclusive: 4.61 µM [activator, partial curve]"
11,COc1ccc(-c2nc(CCNC(=O)c3cccs3)cs2)cc1,active: 20.6 µM
12,COc1cc(OC)c(C(=O)NC2CCCCCC2)cc1OC,"inconclusive: 35.5 µM [inhibitor, partial curve, poor fit]"
13,CCN(CC)S(=O)(=O)c1ccc(N2CCOCC2)c(NC(=O)COc2ccccc2)c1,"inconclusive: 16.4 µM [inhibitor, partial curve]"
14,COc1ccnc(CSC(N)=Nc2ccccc2C(F)(F)F)c1,"inconclusive: 5.17 µM [inhibitor, partial curve, poor fit]"
15,Cc1csc(NC(=O)/C=C/c2ccc3c(c2)OCO3)n1,"inconclusive: 2.91 µM [activator, partial curve]"
16,COc1cc(SC)ccc1C(=O)NCCOc1c(C)cc(C)cc1C,inactive
17,CCCSc1nc(=O)n2cccc(C)c2n1,"inconclusive: 13 µM [activator, partial curve]"
18,Cc1cc(C(=O)NNC(=O)C(CCC(N)=O)NS(=O)(=O)c2ccc(Cl)cc2)c(C)o1 (centres undefined),"inconclusive: 2.06 µM [inhibitor, partial curve, poor fit]"
19,CCc1ccc(-c2csc(-c3c[nH]c4ccccc34)n2)cc1,"inconclusive: 16.4 µM [activator, partial curve]"
20,COc1ccc(CCNC(=O)c2nnn(CC(=O)Nc3cccc(F)c3)c2N)cc1OC,inactive
21,CC1Cc2cc(S(=O)(=O)N3CCC(C(=O)N(C)Cc4ccco4)CC3)ccc2N1C(=O)C1CCC1 (centres undefined),"inconclusive: 13 µM [inhibitor, partial curve, poor fit]"
22,CCCn1c2ccccc2c2nnc(SCC(=O)Nc3cc(C)on3)nc21,"inconclusive: 4.61 µM [inhibitor, single point]"
